Binding data for three substances are collected here from patent US20040214255A1.

Chains of the proteins cited; added tags and fusions are not shown. Lines headed by an entry give the natural chain unless they say otherwise; changes in a name come on top. Residues count along the entry.
UniProt P42338, residues 1-300: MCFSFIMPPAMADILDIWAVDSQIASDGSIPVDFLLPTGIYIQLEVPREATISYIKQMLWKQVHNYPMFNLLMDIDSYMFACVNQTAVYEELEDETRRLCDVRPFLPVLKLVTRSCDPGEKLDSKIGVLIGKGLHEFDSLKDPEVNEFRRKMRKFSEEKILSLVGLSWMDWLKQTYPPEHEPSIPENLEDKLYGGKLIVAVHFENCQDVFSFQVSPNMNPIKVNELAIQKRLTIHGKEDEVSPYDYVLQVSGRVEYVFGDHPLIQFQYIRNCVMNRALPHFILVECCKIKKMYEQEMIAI
UniProt Q9UIQ6, residues 1-273: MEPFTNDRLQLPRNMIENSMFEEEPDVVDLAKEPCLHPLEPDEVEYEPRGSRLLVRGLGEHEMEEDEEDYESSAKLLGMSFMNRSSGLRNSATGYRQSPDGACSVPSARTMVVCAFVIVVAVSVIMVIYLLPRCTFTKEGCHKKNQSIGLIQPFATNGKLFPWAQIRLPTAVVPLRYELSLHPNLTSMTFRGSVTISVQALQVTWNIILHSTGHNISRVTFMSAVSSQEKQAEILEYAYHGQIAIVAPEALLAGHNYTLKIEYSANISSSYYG
UniProt P27986, residues 1-250: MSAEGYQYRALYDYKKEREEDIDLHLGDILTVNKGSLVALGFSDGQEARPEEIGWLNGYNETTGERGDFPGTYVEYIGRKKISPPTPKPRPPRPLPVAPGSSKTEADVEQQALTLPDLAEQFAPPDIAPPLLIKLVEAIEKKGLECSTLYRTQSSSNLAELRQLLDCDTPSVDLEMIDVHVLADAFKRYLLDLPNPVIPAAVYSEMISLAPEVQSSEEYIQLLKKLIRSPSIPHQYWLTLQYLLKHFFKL
UniProt P05067: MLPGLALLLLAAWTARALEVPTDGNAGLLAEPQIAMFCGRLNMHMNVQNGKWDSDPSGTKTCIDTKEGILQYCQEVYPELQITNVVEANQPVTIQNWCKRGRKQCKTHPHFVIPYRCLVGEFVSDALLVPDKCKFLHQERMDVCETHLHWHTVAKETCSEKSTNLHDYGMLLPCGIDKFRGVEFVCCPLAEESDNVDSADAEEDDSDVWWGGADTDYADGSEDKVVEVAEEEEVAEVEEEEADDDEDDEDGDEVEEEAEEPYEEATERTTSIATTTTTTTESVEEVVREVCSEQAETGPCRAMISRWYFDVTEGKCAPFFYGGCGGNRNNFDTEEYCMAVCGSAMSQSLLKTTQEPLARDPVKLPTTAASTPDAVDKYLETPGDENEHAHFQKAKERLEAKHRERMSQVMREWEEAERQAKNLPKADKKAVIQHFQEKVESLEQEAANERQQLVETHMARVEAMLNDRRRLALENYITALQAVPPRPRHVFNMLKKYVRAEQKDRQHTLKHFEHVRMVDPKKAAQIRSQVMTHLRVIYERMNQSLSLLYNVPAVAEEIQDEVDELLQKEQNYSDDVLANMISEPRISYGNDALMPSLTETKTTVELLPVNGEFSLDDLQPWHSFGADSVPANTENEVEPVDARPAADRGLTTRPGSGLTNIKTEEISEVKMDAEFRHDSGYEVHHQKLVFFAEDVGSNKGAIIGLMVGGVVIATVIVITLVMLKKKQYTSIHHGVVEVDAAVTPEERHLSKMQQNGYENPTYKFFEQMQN
UniProt P23471: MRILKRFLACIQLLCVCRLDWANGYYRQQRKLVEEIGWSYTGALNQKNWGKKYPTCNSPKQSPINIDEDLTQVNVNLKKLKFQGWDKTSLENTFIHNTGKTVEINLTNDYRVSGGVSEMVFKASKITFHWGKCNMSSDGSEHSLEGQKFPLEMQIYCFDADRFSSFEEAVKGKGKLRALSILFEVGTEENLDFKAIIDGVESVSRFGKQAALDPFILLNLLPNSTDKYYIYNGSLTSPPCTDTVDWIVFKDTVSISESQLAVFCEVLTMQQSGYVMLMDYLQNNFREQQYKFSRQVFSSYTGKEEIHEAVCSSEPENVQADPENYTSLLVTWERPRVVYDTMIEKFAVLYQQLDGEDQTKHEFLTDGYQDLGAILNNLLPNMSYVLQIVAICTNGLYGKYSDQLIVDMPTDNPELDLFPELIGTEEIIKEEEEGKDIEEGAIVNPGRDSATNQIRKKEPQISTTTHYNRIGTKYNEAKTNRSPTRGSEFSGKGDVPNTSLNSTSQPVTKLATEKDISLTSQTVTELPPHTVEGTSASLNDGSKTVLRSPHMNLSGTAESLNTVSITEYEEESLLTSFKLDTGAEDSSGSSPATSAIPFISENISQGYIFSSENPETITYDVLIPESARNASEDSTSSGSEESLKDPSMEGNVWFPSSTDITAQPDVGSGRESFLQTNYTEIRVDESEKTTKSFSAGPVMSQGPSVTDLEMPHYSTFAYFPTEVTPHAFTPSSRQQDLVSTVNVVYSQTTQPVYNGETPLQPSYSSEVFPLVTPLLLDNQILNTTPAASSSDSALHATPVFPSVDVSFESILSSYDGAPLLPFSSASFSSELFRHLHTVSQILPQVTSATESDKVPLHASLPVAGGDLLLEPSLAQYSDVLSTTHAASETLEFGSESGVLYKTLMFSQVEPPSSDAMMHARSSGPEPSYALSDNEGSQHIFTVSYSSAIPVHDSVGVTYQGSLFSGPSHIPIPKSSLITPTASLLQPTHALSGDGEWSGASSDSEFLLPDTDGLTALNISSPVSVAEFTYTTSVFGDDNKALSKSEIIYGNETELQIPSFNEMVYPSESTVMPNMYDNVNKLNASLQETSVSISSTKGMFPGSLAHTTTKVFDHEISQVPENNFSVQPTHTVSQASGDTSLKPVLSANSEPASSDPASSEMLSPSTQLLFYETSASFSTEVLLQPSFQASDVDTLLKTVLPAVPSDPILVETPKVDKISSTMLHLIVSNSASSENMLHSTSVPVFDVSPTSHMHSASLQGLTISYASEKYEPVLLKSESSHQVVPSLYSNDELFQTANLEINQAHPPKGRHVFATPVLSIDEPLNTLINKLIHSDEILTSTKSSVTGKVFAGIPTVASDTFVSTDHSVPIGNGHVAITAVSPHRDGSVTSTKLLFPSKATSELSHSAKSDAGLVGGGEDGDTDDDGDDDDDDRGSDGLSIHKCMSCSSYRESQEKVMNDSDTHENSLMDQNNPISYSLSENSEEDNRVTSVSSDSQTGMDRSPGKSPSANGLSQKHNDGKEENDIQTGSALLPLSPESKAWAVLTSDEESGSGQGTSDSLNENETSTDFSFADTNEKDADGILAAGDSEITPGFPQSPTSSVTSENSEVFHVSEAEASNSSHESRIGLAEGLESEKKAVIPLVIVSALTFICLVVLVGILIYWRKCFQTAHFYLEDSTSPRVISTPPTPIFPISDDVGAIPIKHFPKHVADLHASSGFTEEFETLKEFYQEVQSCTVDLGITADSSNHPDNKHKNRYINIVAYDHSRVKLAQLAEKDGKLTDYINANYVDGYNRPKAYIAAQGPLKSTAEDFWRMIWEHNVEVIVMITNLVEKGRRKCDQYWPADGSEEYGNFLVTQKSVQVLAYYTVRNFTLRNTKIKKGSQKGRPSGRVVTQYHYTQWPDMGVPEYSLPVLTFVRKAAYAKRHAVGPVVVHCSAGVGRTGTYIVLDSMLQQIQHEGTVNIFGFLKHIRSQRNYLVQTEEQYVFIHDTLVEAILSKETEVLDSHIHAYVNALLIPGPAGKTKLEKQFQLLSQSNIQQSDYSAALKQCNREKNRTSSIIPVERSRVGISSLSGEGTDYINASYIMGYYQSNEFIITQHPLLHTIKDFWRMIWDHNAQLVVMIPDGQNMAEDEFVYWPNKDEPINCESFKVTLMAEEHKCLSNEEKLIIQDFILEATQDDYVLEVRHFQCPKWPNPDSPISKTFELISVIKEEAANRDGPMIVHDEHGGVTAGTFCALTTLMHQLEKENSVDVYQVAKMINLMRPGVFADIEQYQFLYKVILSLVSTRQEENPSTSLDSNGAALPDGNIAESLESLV
UniProt P13521: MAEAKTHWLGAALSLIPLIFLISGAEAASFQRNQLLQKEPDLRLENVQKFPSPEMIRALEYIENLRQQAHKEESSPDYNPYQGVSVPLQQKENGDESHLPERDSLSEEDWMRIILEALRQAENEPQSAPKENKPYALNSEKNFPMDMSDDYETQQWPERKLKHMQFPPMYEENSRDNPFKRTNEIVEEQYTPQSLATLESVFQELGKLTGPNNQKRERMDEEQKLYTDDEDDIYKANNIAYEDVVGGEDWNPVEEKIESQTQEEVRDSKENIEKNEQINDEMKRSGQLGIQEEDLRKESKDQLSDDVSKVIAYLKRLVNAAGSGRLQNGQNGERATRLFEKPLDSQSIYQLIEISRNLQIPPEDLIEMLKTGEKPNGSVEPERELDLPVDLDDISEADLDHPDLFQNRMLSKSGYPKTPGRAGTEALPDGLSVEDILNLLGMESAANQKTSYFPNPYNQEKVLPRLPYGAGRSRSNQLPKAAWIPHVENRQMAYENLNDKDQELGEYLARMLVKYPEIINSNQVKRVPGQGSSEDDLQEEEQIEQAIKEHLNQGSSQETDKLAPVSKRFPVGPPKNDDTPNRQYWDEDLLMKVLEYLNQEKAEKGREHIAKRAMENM

What all share (assay): yeast two-hybrid
Assay [1] deals with PI-3 kinase p110 subunit, amino acids 1-300 (human) (UniProt P42338).
Assay [2] has as its target Insulin-Regulated Membrane-Spanning Aminopeptidase (IRAP), amino acids 1-273 (human) (UniProt Q9UIQ6).
Assay [3] has as its target PI-3K85, amino acids 1-250 (human) (UniProt P27986).

These are yes or no findings as the source states them, for the method shown. A result given as binding can be weak or reduced; the word gives no strength.

With “APP, amino acids 432-594 (from UniProt P05067)”, in assay [1], the binding result was “binds”.

Consider “PTPZ, amino acids 1470-1829 (from UniProt P23471) (enzyme)”, for which the binding entry in assay [2] is recorded as “binds”.

As for “Chromagranin, amino acids 2-322 (from UniProt P13521)”, the binding entry in assay [3] is on record as “binds”.
